Data as given in PubChem BioAssay AID330 (DTP/NCI, 2004).
The list shows only some results of the screen, not a fair sample: it gathers tests that were run many times, whatever their T/C, doses with no T/C, and many T/C values between a quarter and a half above the control. Other doses and runs of a compound stand elsewhere. T/C: endpoint of the treated group in % of that of the vehicle group. Some entries give survivors of the animals treated and no T/C: the source holds a T/C of zero for them, seemingly a mark for toxic or unscored doses. Some survivor counts are full or nearly so, which does not show that the dose was tolerated: the source hardly ever lists a survival T/C far under the control, and the zero likely stands for such cases as well. Counts of survivors are from the toxicity check (mostly the fifth day) where no day follows; animals may have died later. Schedule codes are those of the source, read here as Q, the interval in days (D) or hours (H), X, the number of doses. Additions like (4×) stand for listed records that agree. Some doses were run more than once; the values are given in rising order. For survival time, the PubChem record calls one and a half times the control and up active, and a quarter to a half above the control has no call in these data; cut-offs in other NCI protocols can differ. Some T/C values carry the count of animals alive at the toxicity check (mostly the fifth day); where none is given, no animal had died by that day.

Tested on: P388 leukemia ip, CD2F1 mice, survival T/C
Experiment: NCI In Vivo Anticancer Drug Screen. Data for tumor model P388 Leukemia (intraperitoneal) in CD2F1 (CDF1) mice
Conditions: T/C endpoint: median survival time, higher T/C = longer survival
[1] = dose: 32.0 mg/kg/injection, schedule: Q01DX009 (ip), vehicle: water

Cc1c(N)nc([C@H](CC(N)=O)NC[C@H](N)C(N)=O)nc1C(=O)N[C@H](C(=O)N[C@H](C)[C@@H](O)[C@H](C)C(=O)N[C@H](C(=O)NCCc1nc(-c2nc(C(=O)NCCC[S+](C)C)cs2)cs1)[C@@H](C)O)C(OC1OC(CO)C(O)C(O)C1OC1OC(CO)C(O)C(OC(N)=O)C1O)c1cnc[nH]1 (some centres not stated)
T/C (dose: 1.0 mg/kg/injection, schedule: Q01DX009 (ip), vehicle: saline, evaluated on day 5): 71, 87, 98, 104 % of control
T/C (dose: 1.0 mg/kg/injection, schedule: Q01DX009 (ip), vehicle: saline, evaluated on day 30): 98 and 104 % of control
T/C (dose: 1.0 mg/kg/injection, schedule: Q01DX009 (ip), vehicle: saline, evaluated on day 60): 104 % of control
survivor count (dose: 1.0 mg/kg/injection, schedule: Q01DX009 (ip), vehicle: saline): 10 of 10 (2×)
T/C (dose: 2.0 mg/kg/injection, schedule: Q01DX009 (ip), vehicle: saline, evaluated on day 5): 63, 96, 97, 107, 109 % of control
T/C (dose: 2.0 mg/kg/injection, schedule: Q01DX009 (ip), vehicle: saline, evaluated on day 30): 97 and 104 % of control
T/C (dose: 2.0 mg/kg/injection, schedule: Q01DX009 (ip), vehicle: saline, evaluated on day 45): 91 % of control
T/C (dose: 2.0 mg/kg/injection, schedule: Q01DX009 (ip), vehicle: saline, evaluated on day 60): 107 and 109 % of control
survivor count (dose: 2.0 mg/kg/injection, schedule: Q01DX009 (ip), vehicle: saline): 10 of 10
T/C (dose: 2.0 mg/kg/injection, schedule: Q01DX009 (ip), vehicle: water): 106 (2×), 111, 112, 126 % of control
T/C (dose: 4.0 mg/kg/injection, schedule: Q01DX009 (ip), vehicle: saline, evaluated on day 5): 59, 76, 98, 99, 107, 108, 110 % of control
T/C (dose: 4.0 mg/kg/injection, schedule: Q01DX009 (ip), vehicle: saline, evaluated on day 6): 130 % of control
T/C (dose: 4.0 mg/kg/injection, schedule: Q01DX009 (ip), vehicle: saline, evaluated on day 30): 98, 107, 109 % of control
T/C (dose: 4.0 mg/kg/injection, schedule: Q01DX009 (ip), vehicle: saline, evaluated on day 45): 95 % of control
T/C (dose: 4.0 mg/kg/injection, schedule: Q01DX009 (ip), vehicle: saline, evaluated on day 60): 109 and 110 % of control
survivor count (dose: 4.0 mg/kg/injection, schedule: Q01DX009 (ip), vehicle: saline): 10 of 10
T/C (dose: 4.0 mg/kg/injection, schedule: Q01DX009 (ip), vehicle: water, evaluated on day 20): 115 % of control
T/C (dose: 4.0 mg/kg/injection, schedule: Q01DX009 (ip), vehicle: water, evaluated on day 30): 95, 98 [5 of 6 alive], 99, 106, 107, 111, 120, 122, 123, 126, 127, 128, 144 % of control
T/C (dose: 8.0 mg/kg/injection, schedule: Q01DX009 (ip), vehicle: saline, evaluated on day 5): 66, 74, 94, 103, 105, 109, 111, 116, 122 % of control
T/C (dose: 8.0 mg/kg/injection, schedule: Q01DX009 (ip), vehicle: saline, evaluated on day 6): 132 % of control
T/C (dose: 8.0 mg/kg/injection, schedule: Q01DX009 (ip), vehicle: saline, evaluated on day 30): 103 and 109 % of control (2×)
T/C (dose: 8.0 mg/kg/injection, schedule: Q01DX009 (ip), vehicle: saline, evaluated on day 45): 91 % of control
T/C (dose: 8.0 mg/kg/injection, schedule: Q01DX009 (ip), vehicle: saline, evaluated on day 60): 111 and 113 % of control
survivor count (dose: 8.0 mg/kg/injection, schedule: Q01DX009 (ip), vehicle: saline): 10 of 10
T/C (dose: 8.0 mg/kg/injection, schedule: Q01DX009 (ip), vehicle: water, evaluated on day 20): 108 % of control
T/C (dose: 8.0 mg/kg/injection, schedule: Q01DX009 (ip), vehicle: water, evaluated on day 30): 93, 104 (3×), 106 (2×), 108, 113 (2×), 117, 126, 131, 136 % of control
T/C (dose: 12.0 mg/kg/injection, schedule: Q01DX009 (ip), vehicle: saline): 127 % of control
T/C (dose: 16.0 mg/kg/injection, schedule: Q01DX009 (ip), vehicle: saline, evaluated on day 5): 61, 67, 93, 103, 112, 115, 125 % of control
T/C (dose: 16.0 mg/kg/injection, schedule: Q01DX009 (ip), vehicle: saline, evaluated on day 30): 103, 112, 118 % of control
T/C (dose: 16.0 mg/kg/injection, schedule: Q01DX009 (ip), vehicle: saline, evaluated on day 45): 91 % of control
T/C (dose: 16.0 mg/kg/injection, schedule: Q01DX009 (ip), vehicle: saline, evaluated on day 60): 115 and 127 % of control
survivor count (dose: 16.0 mg/kg/injection, schedule: Q01DX009 (ip), vehicle: saline): 10 of 10
T/C (dose: 16.0 mg/kg/injection, schedule: Q01DX009 (ip), vehicle: water, evaluated on day 20): 100 % of control
T/C (dose: 16.0 mg/kg/injection, schedule: Q01DX009 (ip), vehicle: water, evaluated on day 30): 88, 90, 92, 98, 99 (2×), 101, 102, 109 (2×), 110, 117, 136 % of control
T/C (dose: 32.0 mg/kg/injection, schedule: Q01DX009 (ip), vehicle: saline, evaluated on day 5): 51 (2×), 92, 97, 98, 111, 112 % of control
T/C (dose: 32.0 mg/kg/injection, schedule: Q01DX009 (ip), vehicle: saline, evaluated on day 30): 97 and 111 % of control
T/C (dose: 32.0 mg/kg/injection, schedule: Q01DX009 (ip), vehicle: saline, evaluated on day 45): 91 % of control
T/C (dose: 32.0 mg/kg/injection, schedule: Q01DX009 (ip), vehicle: saline, evaluated on day 60): 98 and 113 % of control
survivor count (dose: 32.0 mg/kg/injection, schedule: Q01DX009 (ip), vehicle: saline): 7 of 10 and 8 of 10
T/C [1]: 86, 98, 98 % of control [5 of 6 alive]
survivor count [1]: 2 of 3 and 6 of 6 (2×)
T/C (dose: 32.0 mg/kg/injection, schedule: Q04DX003 (ip), vehicle: saline): 125 % of control
